According to the supplement of paper PMC6078165:

Test system: MDAMB231
Assay: relative JC-1 red fluorescence (viability) vs pre-drug, coculture with fibroblast (fraction); higher = more viable cancer cells
Experimental: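 JC-1 labelled TNBC cells cocultured 1:1 (1,500 cells each) with CellTrace Violet stained primary or stromal fibroblasts in 384-well plates in FluoroBrite medium, treated with one of 42 anticancer drugs at 0.1, 1, 10 or 100 uM. JC-1 red fluorescence (mitochondrial integrity in cancer cells only) was read by plate reader every 8 h for 72 h. Values are normalised to each well's pre-drug value. The stock of one drug was tenfold lower, so its dose labels may be too high.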

Cc1c2oc3c(C)ccc(C(=O)N[C@@H]4C(=O)N[C@H](C(C)C)C(=O)N5CCC[C@H]5C(=O)N(C)CC(=O)N(C)[C@@H](C(C)C)C(=O)O[C@@H]4C)c3nc-2c(C(=O)N[C@@H]2C(=O)N[C@H](C(C)C)C(=O)N3CCC[C@H]3C(=O)N(C)CC(=O)N(C)[C@@H](C(C)C)C(=O)O[C@@H]2C)c(N)c1=O [Dactinomycin] (I: T[dV]P[Sar][NMeV] / II: T[dV]P[Sar][NMeV]; ester I:1-I:C, II:1-II:C; linker I:N-II:N via Actinocin(9to1))
relative JC-1 red fluorescence
Conditions	8 h	16 h	24 h	32 h	40 h	48 h	56 h	64 h	72 h
0.1 µM, coculture fibroblast: C12385	0.7869	0.71931	0.795	0.698	0.656	0.649	0.637	0.678	0.69
0.1 µM, coculture fibroblast: H6013	0.858	0.82	0.7863	0.769	0.7302	0.7242	0.7154	0.6997	0.6634
0.1 µM, coculture fibroblast: H6019	0.828	0.754	0.805	0.752	0.738	0.76	0.751	0.785	0.778
0.1 µM, coculture fibroblast: H6076	0.828	0.7828	0.781	0.782	0.774	0.769	0.787	0.791	0.798
0.1 µM, coculture fibroblast: H6231	0.851	0.772	0.724	0.671	0.627	0.604	0.573	0.5636	0.5527
0.1 µM, coculture fibroblast: HADF	0.828	0.7963	0.762	0.741	0.709	0.691	0.674	0.664	0.624
0.1 µM, coculture fibroblast: HCFa	0.862	0.8159	0.772	0.744	0.708	0.689	0.674	0.659	0.627
0.1 µM, coculture fibroblast: HCPF	0.8976	0.818	0.769	0.746	0.697	0.662	0.635	0.614	0.598
0.1 µM, coculture fibroblast: HHSteC	0.868	0.848	0.824	0.793	0.77	0.755	0.733	0.734	0.713
0.1 µM, coculture fibroblast: HMF	0.849	0.78	0.738	0.709	0.677	0.644	0.6151	0.6126	0.603
0.1 µM, coculture fibroblast: HPFa	0.9036	0.889	0.848	0.815	0.8	0.78	0.731	0.718	0.697
0.1 µM, coculture fibroblast: HUF	0.807	0.716	0.76	0.642	0.618	0.633	0.626	0.675	0.678
0.1 µM, coculture fibroblast: Hs5	0.8329	0.788	0.778	0.7518	0.746	0.715	0.715	0.71	0.712
0.1 µM, coculture fibroblast: Hs27A	0.8544	0.8257	0.808	0.798	0.762	0.763	0.747	0.7425	0.706
0.1 µM, coculture fibroblast: Hs343T	0.817	0.728	0.677	0.651	0.617	0.583	0.5516	0.546	0.541
0.1 µM, coculture fibroblast: WS1	0.737	0.664	0.714	0.608	0.573	0.581	0.562	0.606	0.609
1 µM, coculture fibroblast: C12385	0.733	0.7099	0.682	0.664	0.601	0.577	0.546	0.549	0.521
1 µM, coculture fibroblast: H6013	0.8661	0.822	0.7907	0.758	0.7166	0.685	0.656	0.622	0.568
1 µM, coculture fibroblast: H6019	0.762	0.6763	0.675	0.63	0.605	0.602	0.58	0.603	0.59
1 µM, coculture fibroblast: H6076	0.846	0.7911	0.7509	0.7343	0.6966	0.6683	0.658	0.653	0.649
1 µM, coculture fibroblast: H6231	0.896	0.815	0.781	0.754	0.727	0.707	0.679	0.671	0.65
1 µM, coculture fibroblast: HADF	0.8561	0.8379	0.817	0.79034	0.752	0.6974	0.6699	0.634	0.5672
1 µM, coculture fibroblast: HCFa	0.867	0.826	0.807	0.787	0.766	0.74	0.711	0.679	0.633
1 µM, coculture fibroblast: HCPF	0.887	0.82113	0.7774	0.7582	0.722	0.686	0.6538	0.628	0.63
1 µM, coculture fibroblast: HHSteC	0.8969	0.88	0.846	0.83	0.793	0.767	0.715	0.693	0.652
1 µM, coculture fibroblast: HMF	0.83619	0.796	0.762	0.74	0.738	0.727	0.712	0.713	0.716
1 µM, coculture fibroblast: HPFa	0.919	0.886	0.841	0.796	0.782	0.752	0.686	0.652	0.613
1 µM, coculture fibroblast: HUF	0.829	0.7301	0.738	0.652	0.611	0.611	0.577	0.572	0.572
1 µM, coculture fibroblast: Hs5	0.736	0.846	0.845	0.821	0.786	0.746	0.712	0.686	0.6665
1 µM, coculture fibroblast: Hs27A	0.8618	0.814	0.786	0.779	0.715	0.6427	0.6096	0.592	0.546
1 µM, coculture fibroblast: Hs343T	0.827	0.767	0.733	0.711	0.679	0.653	0.613	0.593	0.566
1 µM, coculture fibroblast: WS1	0.744	0.713	0.69	0.678	0.652	0.63	0.596	0.595	0.587

The reference is the same well before dosing, and untreated signal decays as well.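 Fibroblast labels name human fibroblasts: mostly primary ones from tissues such as uterus (C12385, HUF), lung (H6013), bone (Hs27A), adrenal (HADF) and skin (WS1), plus mammary HMF and breast cancer-associated Hs343T. The cancer cells are basal-like or mesenchymal-like triple-negative breast cancer lines. The paper calls a changed response a hit when it shifts by more than 3x the replicate standard deviation. The tissue of the other fibroblasts is not given here.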 Numbered stars: 1 amine (or outer) side, 2 acyl side, 3 side chain; on linkers, the order of the positions; unused ones are H or OH. Bridge positions count the residues as written; N and C are the ends. Square brackets hold non-standard residues; d marks the D form. Peptide text beside a SMILES is read from it. I, II: the chains in the order shown. Actinocin(9to1) = Cc1c2oc3c(C)ccc(C(=O)[*:1])c3nc-2c(C(=O)[*:2])c(N)c1=O; NMeV = CN[C@H](C(=O)O)C(C)C; Sar = CNCC(=O)O
